# Measured values as given in PubChem BioAssay AID1794844 (National Center for Advancing Translational Sciences (NCATS), 2023).
# By UniProt entry, the sequences of proteins in these tests, tags left out. Where a name states a change or a piece, a line headed by the entry shows the natural chain unless it says otherwise.
# UniProt C7C422: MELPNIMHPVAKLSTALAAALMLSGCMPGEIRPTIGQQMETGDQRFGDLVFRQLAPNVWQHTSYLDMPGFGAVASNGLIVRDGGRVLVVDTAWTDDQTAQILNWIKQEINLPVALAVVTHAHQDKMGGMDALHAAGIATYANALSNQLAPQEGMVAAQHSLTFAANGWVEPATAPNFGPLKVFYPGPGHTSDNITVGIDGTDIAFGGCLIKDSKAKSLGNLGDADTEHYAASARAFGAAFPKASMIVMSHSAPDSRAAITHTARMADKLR
# Out of some 2,800 compounds screened, fewer than 10 were called active. Not shown: some 7% with an inconclusive outcome. The call rests on the fitted dose curve; in most records, active means well fitted inhibition curve with a large enough effect; inconclusive means small, poorly fitted or top-dose-only effect; inactive means no such curve, though single readings can be large or run the other way. This is one part of the list.
# Target: Metallo-beta-lactamase type 2 (Klebsiella pneumoniae) (UniProt C7C422)
# Experiment: qHTS to identify inhibitors of the New Delhi Metallo-beta-lactamase (NDM): Nitrocefin screen against the machine-based learning selections. On activity, negative = inhibition: % of control where 0% means no effect.
# Settings: NDM-1 enzyme, nitrocefin hydrolysis, absorbance 485 nm; activity, negative = inhibition: at the top concentration
# Procedure, shortened: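 NDM-1 (2 nM final) in 50 mM HEPES pH 7.0, 1 uM Zn2SO4, 0.01% Tween20 was preincubated with compounds for >30 min. Nitrocefin (16.7 uM final) was read at 485 nm after 15 min, and meropenem (50 uM final) at 300 nm after 30 min.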
# Potency means the concentration at half of the fitted maximal effect.
Compound,"activity, negative = inhibition",Potency
COc1ccc(-c2ccnc(N[C@H]3CO[C@H]4[C@@H]3OC[C@H]4OC(=O)Nc3cccc(OC)c3)n2)cc1,inactive: 0.655%,
Clc1ccc(-c2cnc3n2C[C@H](CNCc2ccc4c(c2)OCO4)OC3)cc1,inactive: 1.4% [at 57.5 µM],
Cc1cc(C)n2nc(C(=O)N3CCC(Cc4cccc(C(N)=O)c4)C3)nc2n1 (stereo not drawn),inactive: -1.01%,
COCc1cc(=O)n(CC(=O)Nc2cccc(F)c2)c(N2CCOCC2)n1,inactive: -5.04%,
CN(Cc1ccsc1)CC1(O)CCCN(CCCc2ccccc2)C1=O (stereo not drawn),inactive: -7.5%,
Cc1ncccc1C(=O)N1CCC(N2CC3CC(C2)[C@H]2CCCC(=O)N2C3)CC1 (stereo partly drawn),inactive: 1.4%,
C=CCN(C)C(=O)[C@@H](C)C1CC[C@@]2(C)Cc3sc(NCCCC)nc3[C@@H](C)[C@@H]2[C@H]1O (stereo partly drawn),inactive: -2.55% [at 57.5 µM],
O=[N+]([O-])c1cccc(-c2noc([C@@H]3C[C@@H](O)CN3Cc3ccccc3)n2)c1,inactive: -1.06% [at 57.5 µM],
COc1ccc(-c2nnc3n2CCN(C(=O)N(C)C)C3)cc1,inactive: 2.36% [at 57.5 µM],
Cn1c(=O)[nH]cc(CC(=O)N2CCCC(c3cccc(C(=O)O)c3)C2)c1=O (stereo not drawn),inactive: 240%,
Cn1ncc(N2CCC(CNC(=O)c3cccc(-c4ncc[nH]4)c3)C2)cc1=O (stereo not drawn),inactive: 1.92%,
Cc1cc(C(=O)N2CC(N(C3CCOCC3)S(C)(=O)=O)C2)nn1C,inactive: 2.04%,
CCNC(=O)NC[C@@H]1C=C(C)[C@H](CC(=O)NCc2ccccn2)C[C@H]1C(C)C,inactive: -21.3% [at 57.5 µM],
CN(Cc1ccccc1)Cc1cn([C@H]2CO[C@H]3[C@@H]2OC[C@@H]3NCc2ccccc2)nn1,inactive: 0% [at 57.5 µM],
Cc1ccc2c(c1)c(Cn1cnc(-c3ccccc3)c1-c1cnc[nH]1)nn2C,inactive: 0.619%,
CCCC1(CO)CCCN(CC(=O)NC(C)(C)CC)C1 (stereo not drawn),inactive: -1.95%,
CCCN(CC1CCOC1)C(=O)Nc1cccc(F)c1C (stereo not drawn),inactive: 1.38%,
Cn1c(COc2cccc(C(F)(F)F)c2Cl)nnc1C1CC(N)C1 (stereo not drawn),inactive: 1.95%,
COc1cccc(-c2cc(C(=O)NCCNc3nc(C)cc(=O)[nH]3)[nH]n2)c1,inactive: 8.33%,
O=C(N1CCC2(CCCCO2)CC1)C1(c2ccccc2)CC1,inactive: 2.89%,
O=C1CCCCC(C(=O)N2CCOCC2)N1 (stereo not drawn),inactive: -8.89%,
OC(c1cccc(C(F)(F)F)c1)c1nc(Nc2ccc(F)cc2)n[nH]1 (stereo not drawn),inactive: 3.6% [at 57.5 µM],
COCC(=O)N1C[C@@H]2C[C@H]1C(=O)N(Cc1ccccn1)c1ccccc1O2,inactive: -2.07% [at 57.5 µM],
COc1ccc(-c2[nH]nc3ncc(-c4ccccc4O)nc23)cc1F,inactive: -7.73% [at 57.5 µM],

Compound,"activity, negative = inhibition",Potency
O=c1cc(-c2ccncc2)oc2c(-c3cccc(O)c3)nccc12,inactive: 10.7% [at 57.5 µM],
O=C(NC1CCCCC1)O[C@@H]1CO[C@H]2[C@@H]1OC[C@@H]2n1nnnc1-c1ccc2c(c1)OCCO2,inactive: 0.868%,
CN1C[C@H](NCC2CC2)CCC[C@@H](C(=O)NCc2cc(F)cc(F)c2)CC1=O,inactive: -0.247% [at 57.5 µM],
O=C1N(CCCCOc2ccccc2)c2ccccc2NC12CCNCC2,inactive: 7.34%,
COc1ccc(CNC(=O)C[C@@H]2C[C@H]3O[C@H](CNC4CCNCC4)[C@@H](O)[C@H]3O2)cc1,inactive: -9.78% [at 57.5 µM],
C=CCCC(CN1CCCOCC1)Oc1ccc(-c2ccccc2)nn1 (stereo not drawn),inactive: -13.9%,
COc1ccc(CN[C@H]2[C@H](O)[C@@H](N(C)CCc3ccccn3)[C@@H]3OC[C@H]2O3)cc1,inactive: 6.01% [at 57.5 µM],
Cc1noc2c(Nc3ccc(C(N)=O)cc3)cc(-c3ccsc3)nc12,inactive: -0.904% [at 57.5 µM],
COc1ccc(NC2CCCN(C(=O)c3ccc(S(N)(=O)=O)cc3)C2)cc1 (stereo not drawn),inactive: -12.7%,
Cc1nc(C)c(C(=O)NCC(=O)N2CCCCCNC(=O)CC2c2ccccc2)s1 (stereo not drawn),inactive: 0.516%,
COc1ccc(CN2CC3(CCN(C(=O)Cc4c[nH]c5ccccc45)CC3)C2=O)cc1,inactive: 2.17%,
O=C(O)CN1CCC[C@]2(C(=O)O)CN(Cc3cccc(O)c3)CC[C@@H]12,,active: 3.35 µM
CN(Cc1ccc(F)cc1)c1ccc2ncc(Nc3cccc(N[S+](C)(=O)[O-])c3)n2n1,inactive: -27.5%,
Cc1nc(C2CCCCN2C(=O)Cc2ccccc2)n[nH]1 (stereo not drawn),inactive: 8.61%,
COc1ccc(C(=O)Nc2ccc(-c3noc([C@@H]4CCCN4CCCc4ccccc4)n3)cn2)cc1,inactive: 2.67%,
O=C(Cc1c[nH]c2ncc(-c3cccc(OC(F)(F)F)c3)cc12)NCc1cccnc1,inactive: 3.6% [at 57.5 µM],
COC(=O)[C@H]1CN(C(C)=O)CCN1C(C)=O,inactive: -2.17% [at 76.7 µM],
Cc1ccc2c(c1)nc1n2[C@@H](CNCc2nccn2C)COC1,inactive: -3.82% [at 57.5 µM],
COc1ccc(-c2nc3ccncc3[nH]2)cc1,inactive: -12.9% [at 76.7 µM],
CN1C[C@@H](NC(=O)c2ccc(C(C)(C)C)cc2)C[C@H]1c1nc(-c2ccc3c(c2)OCO3)no1,inactive: 0.308%,
O=C1CC2CCCC(C1)N2C(=O)c1cccc(Br)c1,inactive: -0.0617% [at 57.5 µM],
O=C(N[C@H]1C[C@@H]2C(=O)N[C@H]3CCN(C(=O)c4cccs4)[C@@H]3C(=O)N2C1)C1CCCC1,inactive: -4.3% [at 57.5 µM],
CCc1cc(C(=O)NCc2cc3n(n2)CCCN(S(C)(=O)=O)C3)cs1,inactive: -6.41%,
CC(C)(O)CCc1cccc(C(=O)N[C@H]2CCC[C@H]2C(N)=O)c1,inactive: -3.93%,

# Three compounds drawn at random from the list so far, as already listed:
Compound,"activity, negative = inhibition",Potency
CN(Cc1ccc(F)cc1)c1ccc2ncc(Nc3cccc(N[S+](C)(=O)[O-])c3)n2n1,inactive: -27.5%,
Cc1nc(C2CCCCN2C(=O)Cc2ccccc2)n[nH]1 (stereo not drawn),inactive: 8.61%,
O=C1CC2CCCC(C1)N2C(=O)c1cccc(Br)c1,inactive: -0.0617% [at 57.5 µM],
